Measured values: PubChem BioAssay AID182 (DTP/NCI, 2004)
The list shows only some results of the screen, not a fair sample: it gathers tests that were run many times, whatever their T/C, doses with no T/C, and many T/C values between a quarter and a half above the control. Further doses and runs are listed elsewhere. T/C is the treated group as % of the vehicle group. Some entries give survivors of the animals treated and no T/C: the source holds a T/C of zero for them, seemingly a mark for toxic or unscored doses. Some doses without a T/C left all or most animals alive at the check, yet need not have been tolerated: survival well below the control is almost never listed, so the zero probably covers shortened survival too. Counts of survivors are from the toxicity check (mostly the fifth day) where no day follows; animals may have died later. Schedule codes are those of the source, taken here to give the interval after Q, in days (D) or hours (H), and the number of doses after X. Some molecules as drawn cover several salts, stereoisomers or complexes of the source; a dose is that of the sample tested. Some entries hold several experiments; the values are given in rising order. For survival time, the PubChem record calls one and a half times the control and up active, and a quarter to a half above the control has no call in these data; cut-offs in other NCI protocols can differ. Some T/C values carry the count of animals alive at the toxicity check (mostly the fifth day); without a count, all were alive then.

Test system: BDF1 mice, P388/ADR leukemia ip, median survival T/C
Assay: NCI In Vivo Anticancer Drug Screen. Data for tumor model P388 Leukemia resistant to Adriamycin; NSC 123127, Developed at Scr 06 and 41 (intraperitoneal) in B6D2F1 (BDF1) mice
Settings: T/C endpoint: median survival time, higher T/C = longer survival
Procedure: The antitumor activity of compounds was measured in mice bearing transplantable tumors. Survival or tumor size were measured and the results are expressed as the measurement made in the treated group (T) divided by the measurement made in the vehicle treated control group (C). The tumor model used in this assay is P388 Leukemia resistant to Adriamycin; NSC 123127, Developed at Scr 06 and 41 (intraperitoneal) in B6D2F1 (BDF1) mice

[1] = dose: 2.0 mg/kg/injection, schedule: Q04DX003 (ip), vehicle: saline

CO[C@H]1C[C@](C)(O)Cc2cc3c(c(O)c21)C(=O)c1c(O)cc2c(c1C3=O)O[C@@H]1O[C@@]2(C)[C@H](O)[C@@H](N(C)C)[C@@H]1O
survivor count (dose: 83.3 mg/kg/injection, schedule: Q04DX003 (ip), vehicle: lactate): 4 of 8

CCC1=C(C[C@H]2NCCc3cc(OC)c(OC)cc32)C[C@H]2c3cc(OC)c(OC)cc3CCN2C1
survivor count (dose: 50.0 mg/kg/injection, schedule: Q04DX003 (ip), vehicle: saline): 8 of 8

O=C(Nc1ccc(C2=NCCCN2)cc1)c1ccc(C(=O)Nc2ccc(C3=NCCCN3)cc2)cc1
T/C (dose: 18.0 mg/kg/injection, schedule: Q04DX003 (ip), vehicle: other): 131 % of control [7 of 8 alive] | survivor count (dose: 50.0 mg/kg/injection, schedule: Q04DX003 (ip), vehicle: other): 6 of 8

O=NN(CCCl)C(=O)NCCCl
survivor count (dose: 60.0 mg/kg/injection, schedule: Q01DX001 (ip), vehicle: saline + alcohol): 8 of 8

CC1CC(C)(O)CC(C(O)CC2CC(=O)NC(=O)C2)C1=O (stereo unspecified)
survivor count (dose: 1.2 mg/kg/injection, schedule: Q04DX003 (ip), vehicle: saline): 8 of 8 | T/C (dose: 1.3 mg/kg/injection, schedule: Q04DX003 (ip), vehicle: saline): 125 % of control | survivor count [1]: 7 of 8 | survivor count (dose: 3.33 mg/kg/injection, schedule: Q04DX003 (ip), vehicle: saline): 3 of 8 | survivor count (dose: 3.6 mg/kg/injection, schedule: Q04DX003 (ip), vehicle: saline): 8 of 8 | survivor count (dose: 800.0 micrograms/kg/injection, schedule: Q01DX009 (ip), vehicle: saline): 5 of 8

CCN(CC)CCNc1ccc(CO)c2sc3ccccc3c(=O)c12
survivor count (dose: 80.0 mg/kg/injection, schedule: Q01DX009 (ip), vehicle: water): 8 of 8

COc1ccc(CC2C(=O)NC(C)C(=O)N(C)C3Cc4ccc(cc4)Oc4cc(ccc4O)CC(C(=O)NC(C)C(=O)NC(C)C(=O)N2C)N(C)C3=O)cc1 (stereo unspecified)
survivor count (dose: 20.0 mg/kg/injection, schedule: Q04DX003 (ip), vehicle: other): 1 of 8

Nc1nncs1
survivor count (dose: 480.0 mg/kg/injection, schedule: Q04DX003 (ip), vehicle: other): 3 of 8 | survivor count (dose: 800.0 mg/kg/injection, schedule: Q04DX003 (ip), vehicle: other): 0 of 8

COc1cccc2c1C(=O)c1c(O)c3c(c(O)c1C2=O)C[C@@](O)(/C(C)=N/NC(=O)c1ccccc1)C[C@@H]3OC1CC(N)C(O)C(C)O1 (stereo partly specified)
survivor count (dose: 30.0 mg/kg/injection, schedule: Q04DX003 (ip), vehicle: water): 5 of 8

CC[C@H]1CN2CCc3cc(OC)c(OC)cc3[C@@H]2C[C@@H]1C[C@H]1NCCc2c1[nH]c1ccc(OC)cc21
survivor count (dose: 50.0 mg/kg/injection, schedule: Q04DX003 (ip), vehicle: acid diluted with saline): 6 of 8

NC(C/[N+]([O-])=N/O)C(=O)O (stereo unspecified)
T/C (dose: 173.0 mg/kg/injection, schedule: Q04DX003 (ip), vehicle: sodium bicarbonate): 139 % of control | survivor count (dose: 800.0 mg/kg/injection, schedule: Q04DX003 (ip), vehicle: sodium bicarbonate): 8 of 8

CC[C@]1(O)C[C@H]2CN(CCc3c([nH]c4ccccc34)[C@@](C(=O)OC)(c3cc4c(cc3OC)N(C=O)[C@H]3[C@@](O)(C(=O)OC)[C@H](OC(C)=O)[C@]5(CC)C=CCN6CC[C@]43[C@@H]65)C2)C1
T/C (dose: 1.08 mg/kg/injection, schedule: Q04DX003 (ip), vehicle: saline): 132 % of control | survivor count [1]: 8 of 8 | survivor count (dose: 2000.0 micrograms/kg/injection, schedule: Q04DX003 (ip), vehicle: saline): 8 of 8

CC[C@@]1(O)C[C@H](OC2CC(N(C)C)C(OC3CC(O)C(OC4CCC(=O)C(C)O4)C(C)O3)C(C)O2)c2c(cc3c(c2O)C(=O)c2c(O)ccc(O)c2C3=O)[C@H]1C(=O)OC (stereo partly specified)
T/C (dose: 1.73 mg/kg/injection, schedule: Q04DX003 (ip), vehicle: other): 130 % of control | T/C (dose: 1.8 mg/kg/injection, schedule: Q01DX009 (ip), vehicle: water): 139 % of control | T/C (dose: 2.88 mg/kg/injection, schedule: Q04DX003 (ip), vehicle: other): 138 % of control | T/C (dose: 2.88 mg/kg/injection, schedule: Q04DX003 (ip), vehicle: water): 139 and 141 % of control | T/C (dose: 4.8 mg/kg/injection, schedule: Q04DX003 (ip), vehicle: water): 141 and 147 % of control | survivor count (dose: 8.0 mg/kg/injection, schedule: Q04DX003 (ip), vehicle: other): 8 of 8 | survivor count (dose: 8.0 mg/kg/injection, schedule: Q04DX003 (ip), vehicle: water): 8 of 8 | survivor count (dose: 10.0 mg/kg/injection, schedule: Q04DX003 (ip), vehicle: water): 8 of 8 | survivor count (dose: 13.33 mg/kg/injection, schedule: Q04DX003 (ip), vehicle: water): 8 of 8

COc1cccc2c1C(=O)c1c(O)c3c(c(O)c1C2=O)CC(O)(C(=O)CO)CC3OC1CC(N)C(O)C(C)O1 (stereo unspecified)
survivor count (dose: 2.88 mg/kg/injection, schedule: Q01DX004 (ip), vehicle: water): 8 of 8 | survivor count (dose: 4.8 mg/kg/injection, schedule: Q01DX004 (ip), vehicle: water): 8 of 8 | survivor count (dose: 8.0 mg/kg/injection, schedule: Q01DX004 (ip), vehicle: water): 8 of 8

O=c1[nH]cc(F)c(=O)[nH]1
survivor count (dose: 100.0 mg/kg/injection, schedule: Q04DX003 (ip), vehicle: saline): 8 of 8

Cc1c2ccncc2c(C)c2c1[nH]c1ccccc12
survivor count (dose: 60.0 mg/kg/injection, schedule: Q04DX003 (ip), vehicle: water): 8 of 8 | survivor count (dose: 100.0 mg/kg/injection, schedule: Q04DX003 (ip), vehicle: water): 8 of 8

CCC1(O)CC2CN(CCc3c([nH]c4ccccc34)C(C(=O)OC)(c3cc4c(cc3OC)N(C)C3C(O)(C(=O)NCCSSCCNC(=O)C5(O)C(O)C6(CC)C=CCN7CCC8(c9cc(C%10(C(=O)OC)CC%11CN(CCc%12c%10[nH]c%10ccccc%12%10)CC(O)(CC)C%11)c(OC)cc9N(C)C58)C76)C(O)C5(CC)C=CCN6CCC43C65)C2)C1 (stereo unspecified)
T/C (dose: 1200.0 micrograms/kg/injection, schedule: Q04DX003 (ip), vehicle: saline): 133 % of control

COC1C(O)C(C)OC(OC2C(Oc3cccc4c(O)c5c(=O)oc6ccc(C)c7c(=O)oc(c34)c5c67)OC(C)C(O)C2O)C1O (stereo unspecified)
survivor count (dose: 72.0 mg/kg/injection, schedule: Q04DX003 (ip), vehicle: Klucel (hydroxypropylcellulose) (HPC)): 8 of 8 | survivor count (dose: 120.0 mg/kg/injection, schedule: Q04DX003 (ip), vehicle: Klucel (hydroxypropylcellulose) (HPC)): 8 of 8 | survivor count (dose: 200.0 mg/kg/injection, schedule: Q04DX003 (ip), vehicle: Klucel (hydroxypropylcellulose) (HPC)): 5 of 8

COc1cc(NS(C)(=O)=O)ccc1Nc1c2ccccc2nc2ccccc12
T/C (dose: 6.0 mg/kg/injection, schedule: Q04DX003 (ip), vehicle: other): 134 % of control | T/C (dose: 10.0 mg/kg/injection, schedule: Q04DX003 (ip), vehicle: other): 129 % of control | survivor count (dose: 15.0 mg/kg/injection, schedule: Q04DX003 (ip), vehicle: clinical formulation): 7 of 8 | survivor count (dose: 16.7 mg/kg/injection, schedule: Q04DX003 (ip), vehicle: other): 7 of 8 | survivor count (dose: 25.0 mg/kg/injection, schedule: Q04DX003 (ip), vehicle: clinical formulation): 4 of 8

COC(=O)[C@@]12OC[C@]34[C@H]([C@@H](O)[C@@H]1O)[C@@]1(C)CC(=O)C(O)=C(C)[C@@H]1C[C@H]3OC(=O)[C@H](OC(=O)/C=C(\C)C(C)C)[C@@H]24
survivor count (dose: 3.0 mg/kg/injection, schedule: Q04DX003 (ip), vehicle: saline + alcohol): 1 of 8 and 2 of 8 | survivor count (dose: 5.0 mg/kg/injection, schedule: Q04DX003 (ip), vehicle: saline + alcohol): 0 of 8 | T/C (dose: 389.0 micrograms/kg/injection, schedule: Q01DX004 (ip), vehicle: saline + alcohol): 130 % of control | T/C (dose: 432.0 micrograms/kg/injection, schedule: Q01DX009 (ip), vehicle: saline + alcohol): 130 % of control | T/C (dose: 648.0 micrograms/kg/injection, schedule: Q01DX004 (ip), vehicle: saline + alcohol): 141 % of control [6 of 8 alive] | T/C (dose: 720.0 micrograms/kg/injection, schedule: Q01DX009 (ip), vehicle: saline + alcohol): 136 % of control | survivor count (dose: 1080.0 micrograms/kg/injection, schedule: Q01DX004 (ip), vehicle: saline + alcohol): 0 of 8 | T/C (dose: 1200.0 micrograms/kg/injection, schedule: Q01DX009 (ip), vehicle: saline + alcohol): 146 % of control | survivor count (dose: 1800.0 micrograms/kg/injection, schedule: Q01DX004 (ip), vehicle: saline + alcohol): 1 of 8 | survivor count (dose: 2000.0 micrograms/kg/injection, schedule: Q01DX009 (ip), vehicle: saline + alcohol): 4 of 8
